Measurements as given in publication PMC7465990.
Results are given in words; binding and its absence hold for the method and conditions named. For some of these results: Binding seen in cells or lysates may run through a third protein. Some entries that bind do so weakly or less than the wild type. Values belong to the molecule of their own block, whether it stands above or below them.

Sequences of proteins named here, by UniProt entry; tags and fusion partners are left off. A change or cut given only in a name is not applied to a line headed by its entry. A line that says so, or that is headed by a name, gives the form on record, which may keep a tag or linker.
UniProt Q5JTV8: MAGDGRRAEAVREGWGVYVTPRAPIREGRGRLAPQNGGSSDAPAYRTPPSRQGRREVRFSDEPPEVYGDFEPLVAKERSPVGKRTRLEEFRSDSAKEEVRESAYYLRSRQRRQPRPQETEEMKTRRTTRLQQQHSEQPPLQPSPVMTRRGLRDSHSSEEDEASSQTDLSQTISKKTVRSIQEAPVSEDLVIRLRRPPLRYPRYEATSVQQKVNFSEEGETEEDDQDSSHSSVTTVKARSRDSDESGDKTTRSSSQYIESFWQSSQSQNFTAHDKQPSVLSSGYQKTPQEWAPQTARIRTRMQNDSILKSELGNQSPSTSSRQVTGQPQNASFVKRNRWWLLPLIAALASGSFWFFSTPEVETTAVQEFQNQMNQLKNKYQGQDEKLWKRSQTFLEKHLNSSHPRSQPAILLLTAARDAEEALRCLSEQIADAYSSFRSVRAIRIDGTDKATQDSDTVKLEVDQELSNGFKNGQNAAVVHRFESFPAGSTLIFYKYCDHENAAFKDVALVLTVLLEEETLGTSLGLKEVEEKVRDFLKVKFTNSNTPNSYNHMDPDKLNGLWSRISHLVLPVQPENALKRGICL
Human full-length LAP1B (lamina-associated polypeptide 1B, variant 1), in vitro translated (Q5JTV8, form named): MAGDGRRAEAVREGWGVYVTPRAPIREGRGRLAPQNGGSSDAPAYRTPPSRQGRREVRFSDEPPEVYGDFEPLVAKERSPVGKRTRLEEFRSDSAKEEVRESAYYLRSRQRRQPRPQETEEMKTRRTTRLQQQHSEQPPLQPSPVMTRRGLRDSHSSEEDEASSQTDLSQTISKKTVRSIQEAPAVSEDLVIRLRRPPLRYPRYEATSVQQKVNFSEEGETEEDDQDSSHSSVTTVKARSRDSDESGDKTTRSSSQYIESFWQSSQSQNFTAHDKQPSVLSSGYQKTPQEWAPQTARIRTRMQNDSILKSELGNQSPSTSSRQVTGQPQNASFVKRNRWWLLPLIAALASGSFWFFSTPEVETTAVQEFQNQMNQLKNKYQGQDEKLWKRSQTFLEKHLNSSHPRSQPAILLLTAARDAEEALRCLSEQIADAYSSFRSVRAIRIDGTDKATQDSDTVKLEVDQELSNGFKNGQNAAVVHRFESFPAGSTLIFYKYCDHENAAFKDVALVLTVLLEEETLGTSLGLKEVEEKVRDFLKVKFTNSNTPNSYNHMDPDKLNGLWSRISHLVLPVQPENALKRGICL
UniProt Q15554: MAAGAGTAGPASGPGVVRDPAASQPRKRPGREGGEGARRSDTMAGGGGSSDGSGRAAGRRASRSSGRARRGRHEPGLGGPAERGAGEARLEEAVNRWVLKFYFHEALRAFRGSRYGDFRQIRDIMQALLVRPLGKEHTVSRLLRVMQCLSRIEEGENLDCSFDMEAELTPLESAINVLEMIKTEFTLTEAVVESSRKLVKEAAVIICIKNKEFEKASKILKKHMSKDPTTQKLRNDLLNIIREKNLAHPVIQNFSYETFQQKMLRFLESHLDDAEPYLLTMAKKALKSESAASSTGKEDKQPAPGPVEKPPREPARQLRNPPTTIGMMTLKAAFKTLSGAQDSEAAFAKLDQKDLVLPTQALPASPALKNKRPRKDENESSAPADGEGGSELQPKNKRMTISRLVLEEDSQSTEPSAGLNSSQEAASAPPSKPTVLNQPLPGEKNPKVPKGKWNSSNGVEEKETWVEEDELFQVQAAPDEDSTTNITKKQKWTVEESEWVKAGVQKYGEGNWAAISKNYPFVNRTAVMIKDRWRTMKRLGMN

Legend:
[1] = biological target: T1, Repressor/activator protein 1 (RAP1; TRF2-interacting protein), endogenous (human (endogenous in HeLa and SH-SY5Y)) (UniProt Q9NYB0); assay: co-IP; SH-SY5Y whole cell lysates, baseline conditions; CHAPS lysis buffer; anti-LAP1, anti-TRF2 or anti-RAP1 on Dynabeads Protein G, overnight 4 °C; immunoblot
T1 sequence: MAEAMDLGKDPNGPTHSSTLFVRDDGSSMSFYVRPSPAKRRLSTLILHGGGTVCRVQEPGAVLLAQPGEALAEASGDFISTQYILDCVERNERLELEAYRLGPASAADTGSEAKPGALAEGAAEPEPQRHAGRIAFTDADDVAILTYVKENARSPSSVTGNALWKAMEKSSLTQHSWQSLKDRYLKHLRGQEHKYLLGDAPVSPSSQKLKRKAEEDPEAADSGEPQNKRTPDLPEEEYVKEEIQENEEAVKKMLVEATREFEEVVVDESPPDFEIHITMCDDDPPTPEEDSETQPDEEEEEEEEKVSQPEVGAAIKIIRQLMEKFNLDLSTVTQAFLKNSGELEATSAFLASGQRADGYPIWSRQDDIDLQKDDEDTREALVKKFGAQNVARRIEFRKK

[2] = biological target: Human LAP1B ∆A185 (shorter LAP1B variant lacking alanine 185, variant 2), in vitro translated (human) (UniProt Q5JTV8); assay: far-Western, overlay or dot blot; LAP1B–IVT and LAP1B ∆A185–IVT resolved by 10% SDS–PAGE and transferred to nitrocellulose; blocked in 3% BSA/TBS-T; overlaid with HeLa nuclear extract (in PBS) for 1 h; bound TRF2 detected with anti-TRF2 antibody
[3] = biological target: Human full-length LAP1B (lamina-associated polypeptide 1B, variant 1), in vitro translated (human) (UniProt Q5JTV8); assay: as above
[4] = biological target: Telomeric repeat-binding factor 2 (TRF2), endogenous (human (endogenous in HeLa and SH-SY5Y)) (UniProt Q15554); assay: co-IP; SH-SY5Y whole cell lysates, baseline conditions; CHAPS lysis buffer; anti-LAP1, anti-TRF2 or anti-RAP1 on Dynabeads Protein G, overnight 4 °C; immunoblot

binding [1]: binds | binding [2]: binds | binding [3]: binds
Molecule: Telomeric repeat-binding factor 2 (TRF2), endogenous (from UniProt Q15554-3 1-542)

binding [4]: binds
B1: Repressor/activator protein 1 (RAP1; TRF2-interacting protein), endogenous (protein, UniProt Q9NYB0 1-399)
chain: T1 sequence
